{"source": "patent US20250197248A1", "about": "“WATER TREATMENT SYSTEM” (KEMIRA OYJ, priority 2022, published 2025)", "experiment": "Pilot run at a wastewater treatment plant, online monitoring of residual PFA (Hach Cl-17)", "details": "15 min retention, monitored over 22 hours"}
{"smiles": "O=COO", "note": "[PFA, performic acid]", "values": [{"measurement": "residual PFA concentration", "setting": "controlled dosing, target 0.5 ppm, FIG. 6A", "result": "~0.5", "unit": "ppm"}, {"measurement": "residual PFA concentration, highest values", "setting": "fixed dose 1.2 ppm, FIG. 6B", "result": "about 0.9 ppm"}]}
